For test [1], the target named is Akt1 (PKBα) (human) (UniProt P31749). Kind of test: affinity purification with mass spectrometry; as a1, medium (K6R6) SILAC channel: cells arrested in G2 by 400 ng/ml nocodazole for 16-18 hours, ratio against the light G0 channel.
Test [2] shares this target. Kind of test: affinity purification with mass spectrometry; SH-tagged Akt1 as bait; SILAC-labelled HEK293 cells arrested in G0 (serum starvation), G1/S (aphidicolin) and G2 (nocodazole) mixed 1:1:1; lysis in IP buffer (150 mM NaCl, 50 mM Tris-HCl pH 7.5, 1% NP-40); streptactin magnetic beads and anti-HA agarose in parallel at 4 °C, eluates pooled; LC-MS/MS, 1% G-FDR-fit, three replicates; hits of SH-tagged GFP subtracted.

Sequences of proteins named here, by UniProt entry; tags and fusion partners are left off.
UniProt P31749: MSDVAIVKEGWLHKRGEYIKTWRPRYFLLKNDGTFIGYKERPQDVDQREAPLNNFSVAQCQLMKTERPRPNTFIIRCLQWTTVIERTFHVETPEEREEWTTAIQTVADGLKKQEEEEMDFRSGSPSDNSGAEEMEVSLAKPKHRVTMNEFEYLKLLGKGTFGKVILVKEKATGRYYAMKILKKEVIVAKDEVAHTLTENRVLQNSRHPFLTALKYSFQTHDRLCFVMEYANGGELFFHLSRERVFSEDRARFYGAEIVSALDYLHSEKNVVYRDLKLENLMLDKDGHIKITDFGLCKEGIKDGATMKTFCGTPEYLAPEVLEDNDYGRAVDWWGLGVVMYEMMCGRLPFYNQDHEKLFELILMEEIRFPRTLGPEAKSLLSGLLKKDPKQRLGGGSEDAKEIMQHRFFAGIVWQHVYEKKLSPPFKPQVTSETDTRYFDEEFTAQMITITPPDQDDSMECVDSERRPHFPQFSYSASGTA

For test [3] the target is unchanged. Described as above. This is another data set of the same source.

Data on four molecules can be found in article PMC5778034.

Results are given in words; binding and its absence hold for the method and conditions named. In cells and extracts the contact can be indirect. Here binding means that the protein was enriched with, or labelled near, the bait; the list need not be complete.

With HSP90AA1 (from UniProt P07900 1-732), the figures for the binding entry with Akt1 (PKBα) (human) [1] and with Akt1 (PKBα) (human) [2] were “binds weakly” and “binds”, respectively.

B1: ANLN (protein, UniProt Q9NQW6 1-1124)
chain: MDPFTEKLLERTRARRENLQRKMAERPTAAPRSMTHAKRARQPLSEASNQQPLSGGEEKSCTKPSPSKKRCSDNTEVEVSNLENKQPVESTSAKSCSPSPVSPQVQPQAADTISDSVAVPASLLGMRRGLNSRLEATAASSVKTRMQKLAEQRRRWDNDDMTDDIPESSLFSPMPSEEKAASPPRPLLSNASATPVGRRGRLANLAATICSWEDDVNHSFAKQNSVQEQPGTACLSKFSSASGASARINSSSVKQEATFCSQRDGDASLNKALSSSADDASLVNASISSSVKATSPVKSTTSITDAKSCEGQNPELLPKTPISPLKTGVSKPIVKSTLSQTVPSKGELSREICLQSQSKDKSTTPGGTGIKPFLERFGERCQEHSKESPARSTPHRTPIITPNTKAIQERLFKQDTSSSTTHLAQQLKQERQKELACLRGRFDKGNIWSAEKGGNSKSKQLETKQETHCQSTPLKKHQGVSKTQSLPVTEKVTENQIPAKNSSTEPKGFTECEMTKSSPLKITLFLEEDKSLKVTSDPKVEQKIEVIREIEMSVDDDDINSSKVINDLFSDVLEEGELDMEKSQEEMDQALAESSEEQEDALNISSMSLLAPLAQTVGVVSPESLVSTPRLELKDTSRSDESPKPGKFQRTRVPRAESGDSLGSEDRDLLYSIDAYRSQRFKETERPSIKQVIVRKEDVTSKLDEKNNAFPCQVNIKQKMQELNNEINMQQTVIYQASQALNCCVDEEHGKGSLEEAEAERLLLIATGKRTLLIDELNKLKNEGPQRKNKASPQSEFMPSKGSVTLSEIRLPLKADFVCSTVQKPDAANYYYLIILKAGAENMVATPLASTSNSLNGDALTFTTTFTLQDVSNDFEINIEVYSLVQKKDPSGLDKKKKTSKSKAITPKRLLTSITTKSNIHSSVMASPGGLSAVRTSNFALVGSYTLSLSSVGNTKFVLDKVPFLSSLEGHIYLKIKCQVNSSVEERGFLTIFEDVSGFGAWHRRWCVLSGNCISYWTYPDDEKRKNPIGRINLANCTSRQIEPANREFCARRNTFELITVRPQREDDRETLVSQCRDTLCVTKNWLSADTKEERDLWMQKLNQVLVDIRLWQPDACYKPIGKP
Turning to B1, the binding entry with Akt1 (PKBα) (human) [3] is reported as “binds”.

B2: CDC37 (protein, UniProt Q16543 1-378)
chain: MVDYSVWDHIEVSDDEDETHPNIDTASLFRWRHQARVERMEQFQKEKEELDRGCRECKRKVAECQRKLKELEVAEGGKAELERLQAEAQQLRKEERSWEQKLEEMRKKEKSMPWNVDTLSKDGFSKSMVNTKPEKTEEDSEEVREQKHKTFVEKYEKQIKHFGMLRRWDDSQKYLSDNVHLVCEETANYLVIWCIDLEVEEKCALMEQVAHQTIVMQFILELAKSLKVDPRACFRQFFTKIKTADRQYMEGFNDELEAFKERVRGRAKLRIEKAMKEYEEEERKKRLGPGGLDPVEVYESLPEELQKCFDVKDVQMLQDAISKMDPTDAKYHMQRCIDSGLWVPNSKASEAKEGEEAGPGDPLLEAVPKTGDEKDVSV
Take B2: the binding result with Akt1 (PKBα) (human) [3] was “binds”.

B3: Heterogeneous Nuclear Ribonucleoprotein D like (HNRNPDL) (protein, UniProt O14979 1-420)
chain: MEVPPRLSHVPPPLFPSAPATLASRSLSHWRPRPPRQLAPLLPSLAPSSARQGARRAQRHVTAQQPSRLAGGAAIKGGRRRRPDLFRRHFKSSSIQRSAAAAAATRTARQHPPADSSVTMEDMNEYSNIEEFAEGSKINASKNQQDDGKMFIGGLSWDTSKKDLTEYLSRFGEVVDCTIKTDPVTGRSRGFGFVLFKDAASVDKVLELKEHKLDGKLIDPKRAKALKGKEPPKKVFVGGLSPDTSEEQIKEYFGAFGEIENIELPMDTKTNERRGFCFITYTDEEPVKKLLESRYHQIGSGKCEIKVAQPKEVYRQQQQQQKGGRGAAAGGRGGTRGRGRGQGQNWNQGFNNYYDQGYGNYNSAYGGDQNYSGYGGYDYTGYNYGNYGYGQGYADYSGQQSTYGKASRGGGNHQNNYQPY
Regarding B3, in the test with Akt1 (PKBα) (human) [3], the binding entry was “binds”.
